Results published in patent US20160368879A1, “PHOTOACID GENERATOR, AND RESIN COMPOSITION FOR PHOTOLITHOGRAPHY” (SAN-APRO LTD., priority 2013, published 2016).

Assay: Resist curing properties: lowest exposure quantity of a phenol resin/melamine negative resist film
Conditions: for Resist curing properties: 1 part photoacid generator in phenol resin/CYMEL 300 resist, film about 3 μm, PEB 10 minutes 120° C., 0.5% potassium hydroxide development; for Lowest exposure quantity: lowest exposure (365 nm) giving change in film thickness before and after development within 10%
Experimental: A resin solution of 75 parts of a phenol resin (“PHENOLITE TD 431” available from DIC Corporation), 25 parts of a melamine curing agent (“CYMEL 300” available from MITSUI CYANAMID Co., Ltd.), 1 part of a synthesized photoacid generator and 200 parts of propylene glycol monomethyl ether acetate (hereinafter, abbreviated as PGMEA) was applied on a glass substrate of 10 cm square under a condition of 10 seconds at 1000 rpm using a spin coater. Then, the applied film was dried under vacuum for 5 minutes at 25° C., after which the film was dried for 3 minutes on an 80° C. hot plate to form a resist film with a film thickness of about 3 μm. The whole face of this resist film was exposed with a prescribed dose of ultraviolet light having a wavelength limited by the L-34 filter (a filter cutting light with a wavelength less than 340 nm, available from Kenko Optical Co., Ltd.) using an ultraviolet irradiation device (HMW-661F-01 available from ORC MANUFACTURING CO., LTD.). In this connection, a wavelength of 365 nm was measured for the integrated exposure quantity. Then, the film was subjected to post exposure baking (PEB) for 10 minutes with a 120° C. fair wind dryer, after which the film was immersed for 30 seconds in a 0.5% potassium hydroxide solution to be subjected to development, washed immediately with water and dried.
The film thickness of this resist film was measured using a shape measuring microscope (super-depth shape measuring microscope VK-8550, available from KEYENCE CORPORATION).
In this context, the resist curing properties were evaluated according to the following criteria on the basis of the lowest exposure quantity with which a change in film thickness of the resist film before and after development of within 10% was attained.
◯: The lowest exposure quantity is 250 mJ/cm^2 or less. Δ: The lowest exposure quantity is greater than 250 mJ/cm^2 and 500 mJ/cm^2 or less. x: The lowest exposure quantity is greater than 500 mJ/cm^2.

SMILES	Resist curing properties	Lowest exposure quantity
O=C(Cc1ccccc1)c1ccc2c3c(cccc13)C(=O)N(OS(=O)(=O)c1c(F)c(F)c(F)c(F)c1F)C2=O [Example A-24, 4-phenylacetyl-1,8-naphthalimide pentafluorobenzenesulfonate]	∘	135 mJ/cm^2
O=C1c2cccc3c(Oc4c(F)c(F)c(F)c(F)c4F)ccc(c23)C(=O)N1OS(=O)(=O)c1c(F)c(F)c(F)c(F)c1F [Example A-25, 4-pentafluorophenoxy-1,8-naphthalimide pentafluorobenzenesulfonate]	∘	90 mJ/cm^2
O=C1c2cccc3c(Oc4cccc(C(F)(F)F)c4)ccc(c23)C(=O)N1OS(=O)(=O)c1c(F)c(F)c(F)c(F)c1F [Example A-26, 4-(3-trifluoromethylphenoxy)-1,8-naphthalimide pentafluorobenzenesulfonate]	∘	100 mJ/cm^2
O=C1c2cccc3c(Sc4ccccc4)ccc(c23)C(=O)N1OS(=O)(=O)c1c(F)c(F)c(F)c(F)c1F [Example A-27, 4-phenylthio-1,8-naphthalimide pentafluorobenzenesulfonate]	∘	140 mJ/cm^2
COc1cc2c3c(cccc3c1)C(=O)N(OS(=O)(=O)c1c(F)c(F)c(F)c(F)c1F)C2=O [Example A-28, 3-methoxy-1,8-naphthalimide pentafluorobenzenesulfonate]	∘	140 mJ/cm^2
CCCCC(CC)C(=O)Oc1cc2c3c(cccc3c1)C(=O)N(OS(=O)(=O)c1c(F)c(F)c(F)c(F)c1F)C2=O (centres unmarked) [Example A-29, 3-(2-ethylhexanoyloxy)-1,8-naphthalimide pentafluorobenzenesulfonate]	∘	80 mJ/cm^2
CCCC(=O)Oc1cc2c3c(cccc3c1)C(=O)N(OS(=O)(=O)c1c(F)c(F)c(F)c(F)c1F)C2=O [Example A-30, 3-butyroyloxy-1,8-naphthalimide pentafluorobenzenesulfonate]	∘	100 mJ/cm^2
O=C(Oc1cc2c3c(cccc3c1)C(=O)N(OS(=O)(=O)c1c(F)c(F)c(F)c(F)c1F)C2=O)c1ccccc1 [Example A-31, 3-benzoyloxy-1,8-naphthalimide pentafluorobenzenesulfonate]	∘	120 mJ/cm^2
O=C(Oc1cc2c3c(cccc3c1)C(=O)N(OS(=O)(=O)c1c(F)c(F)c(F)c(F)c1F)C2=O)c1c(F)c(F)c(F)c(F)c1F [Example A-32, 3-pentafluorobenzoyloxy-1,8-naphthalimide pentafluorobenzenesulfonate]	∘	90 mJ/cm^2
CC(C)(C)c1cc2c3c(cc(C(C)(C)C)cc3c1)C(=O)N(OS(=O)(=O)c1c(F)c(F)c(F)c(F)c1F)C2=O [Example A-33, 3,6-di-tert-butyl-1,8-naphthalimide pentafluorobenzenesulfonate]	∘	85 mJ/cm^2
CC(C)(C)Cc1cc2c3c(cc(CC(C)(C)C)cc3c1)C(=O)N(OS(=O)(=O)c1c(F)c(F)c(F)c(F)c1F)C2=O [Example A-34, 3,6-dineopentyl-1,8-naphthalimide pentafluorobenzenesulfonate]	∘	90 mJ/cm^2
O=C1c2cc(C34CC5CC(CC(C5)C3)C4)cc3cc(C45CC6CC(CC(C6)C4)C5)cc(c23)C(=O)N1OS(=O)(=O)c1c(F)c(F)c(F)c(F)c1F [Example A-35, 3,6-diadamantyl-1,8-naphthalimide pentafluorobenzenesulfonate]	∘	100 mJ/cm^2
O=C1c2cccc3c(C(F)(F)C(F)(F)C(F)(F)C(F)(F)F)ccc(c23)C(=O)N1OS(=O)(=O)c1c(F)c(F)c(F)c(F)c1F [Example A-36, 4-(nonafluorobutyl)-1,8-naphthalimide pentafluorobenzenesulfonate]	–	350 mJ/cm^2
O=C1c2cccc3c(C(F)(F)C(F)(F)C(F)(F)C(F)(F)C(F)(F)C(F)(F)C(F)(F)C(F)(F)F)ccc(c23)C(=O)N1OS(=O)(=O)c1c(F)c(F)c(F)c(F)c1F [Example A-37, 4-(heptadecafluoro-n-octyl)-1,8-naphthalimide pentafluorobenzenesulfonate]	–	310 mJ/cm^2
C[Si](C)(C)c1ccc2c3c(cccc13)C(=O)N(OS(=O)(=O)c1c(F)c(F)c(F)c(F)c1F)C2=O [Example A-38, 4-trimethylsilyl-1,8-naphthalimide pentafluorobenzenesulfonate]	∘	110 mJ/cm^2
O=C1c2cccc3c(Cl)ccc(c23)C(=O)N1OS(=O)(=O)c1c(F)c(F)c(F)c(F)c1F [Example A-39, 4-chloro-1,8-naphthalimide pentafluorobenzenesulfonate]	∘	160 mJ/cm^2
O=C1c2cccc3c(Br)ccc(c23)C(=O)N1OS(=O)(=O)c1c(F)c(F)c(F)c(F)c1F [Example A-40, 4-bromo-1,8-naphthalimide pentafluorobenzenesulfonate]	∘	180 mJ/cm^2
CC(C)Oc1ccc2c3c(cccc13)C(=O)N(OS(=O)(=O)CC13CCC(CC1=O)C3(C)C)C2=O (stereo not drawn) [Example A-41, 4-isopropoxy-1,8-naphthalimide-(+)-10-camphorsulfonate]	∘	210 mJ/cm^2
CCCOc1ccc2c3c(cccc13)C(=O)N(OS(=O)(=O)CC13CCC(CC1=O)C3(C)C)C2=O (stereo not drawn) [Example A-42, 4-n-propoxy-1,8-naphthalimide-(+)-10-camphorsulfonate]	∘	220 mJ/cm^2
CC1(C)C2CCC1(CS(=O)(=O)ON1C(=O)c3cccc4c(OCC(F)(F)C(F)F)ccc(c34)C1=O)C(=O)C2 (stereo not drawn) [Example A-43, 4-(2,2,3,3-tetrafluoro-1-propoxy)-1,8-naphthalimide-(+)-10-camphorsulfonate]	∘	180 mJ/cm^2
CC1(C)C2CCC1(CS(=O)(=O)ON1C(=O)c3cccc4c(C(=O)Cc5ccccc5)ccc(c34)C1=O)C(=O)C2 (stereo not drawn) [Example A-44, 4-phenylacetyl-1,8-naphthalimide-(+)-10-camphorsulfonate]	∘	210 mJ/cm^2
CC1(C)C2CCC1(CS(=O)(=O)ON1C(=O)c3cccc4c(Oc5c(F)c(F)c(F)c(F)c5F)ccc(c34)C1=O)C(=O)C2 (stereo not drawn) [Example A-45, 4-pentafluorophenoxy-1,8-naphthalimide-(+)-10-camphorsulfonate]	∘	140 mJ/cm^2
CC1(C)C2CCC1(CS(=O)(=O)ON1C(=O)c3cccc4c(Oc5cccc(C(F)(F)F)c5)ccc(c34)C1=O)C(=O)C2 (stereo not drawn) [Example A-46, 4-(3-trifluoromethylphenoxy)-1,8-naphthalimide-(+)-10-camphorsulfonate]	∘	160 mJ/cm^2
CC1(C)C2CC[C@@]1(CS(=O)(=O)ON1C(=O)c3cccc4c(Sc5ccccc5)ccc(c34)C1=O)C(=O)C2 [Example A-47, 4-phenylthio-1,8-naphthalimide-(+)-10-camphorsulfonate]	∘	210 mJ/cm^2
COc1cc2c3c(cccc3c1)C(=O)N(OS(=O)(=O)C[C@]13CCC(CC1=O)C3(C)C)C2=O [Example A-48, 3-methoxy-1,8-naphthalimide-(+)-10-camphorsulfonate]	∘	210 mJ/cm^2
CCCCC(CC)C(=O)Oc1cc2c3c(cccc3c1)C(=O)N(OS(=O)(=O)CC13CCC(CC1=O)C3(C)C)C2=O (stereo not drawn) [Example A-49, 3-(2-ethylhexanoyloxy)-1,8-naphthalimide-(+)-10-camphorsulfonate]	∘	120 mJ/cm^2
CCCC(=O)Oc1cc2c3c(cccc3c1)C(=O)N(OS(=O)(=O)CC13CCC(CC1=O)C3(C)C)C2=O (stereo not drawn) [Example A-50, 3-butyroyloxy-1,8-naphthalimide-(+)-10-camphorsulfonate]	∘	150 mJ/cm^2
CC1(C)C2CC[C@@]1(CS(=O)(=O)ON1C(=O)c3cccc4cc(OC(=O)c5ccccc5)cc(c34)C1=O)C(=O)C2 [Example A-51, 3-benzoyloxy-1,8-naphthalimide-(+)-10-camphorsulfonate]	∘	180 mJ/cm^2
CC1(C)C2CC[C@@]1(CS(=O)(=O)ON1C(=O)c3cccc4cc(OC(=O)c5c(F)c(F)c(F)c(F)c5F)cc(c34)C1=O)C(=O)C2 [Example A-52, 3-pentafluorobenzoyloxy-1,8-naphthalimide-(+)-10-camphorsulfonate]	∘	140 mJ/cm^2
